Over roughly 33,000 sequences, “E-score (-0.5 to 0.5)” has its median near -8e-05; the highest 2% begin near 0.23. The list shows a part of the results.
target: T1, Nrg2 (UniProt P38082); test: PBM E-score (8-mer binding enrichment) (E-score (-0.5 to 0.5)); higher = stronger / more preferred TF binding; settings: protein concentration: 100 nM; construct: GST-full length
T1 sequence: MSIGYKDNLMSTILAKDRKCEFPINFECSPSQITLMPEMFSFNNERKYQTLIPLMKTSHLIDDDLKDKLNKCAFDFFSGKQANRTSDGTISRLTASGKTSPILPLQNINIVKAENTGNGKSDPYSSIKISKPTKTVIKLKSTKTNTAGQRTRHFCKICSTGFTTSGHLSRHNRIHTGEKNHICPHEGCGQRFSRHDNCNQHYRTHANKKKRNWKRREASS
Method in brief: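 E-scores (a modified Wilcoxon-Mann-Whitney statistic) were assigned by the Universal PBM Analysis Suite to every ungapped eight-base word pooled with its reverse complement. The input came from universal all-10-mer Agilent arrays made double-stranded by primer extension and probed with GST-tagged yeast transcription factors at about 100-200 nM. Fluorescent anti-GST detected bound protein, and masliner normalised the scans.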

Sequence | PBM E-score
CGTAGGAC | -0.22
CCTTTCTA | 0.0384
GACACAAA | 0.136
CTCGTGCA | -0.0635
CGGAATCC | -0.0755
AATCCATA | 0.155
CGCGATAC | 0.114
ACAACGGG | 0.243
GCTTACTA | -0.0461
CCACGTCG | 0.0281
AGAATCAC | -0.00078
ACTCACCG | -0.0214
CCAGGCTA | -0.171
CGACTAGA | -0.135
GTAGGACA | 0.0388
CCGACGGA | 0.0815
CATTTGAC | -0.105
ACGGCAAT | 0.226
CTTGAGCA | -0.192
CAGGCTCG | -0.0589
CTAACTAC | -0.0974
GTCCCAAA | -0.0993

Quoted at random: 6 entries already listed, in no set order.
Sequence | PBM E-score
CCACGTCG | 0.0281
CGTAGGAC | -0.22
CGCGATAC | 0.114
CCAGGCTA | -0.171
CTCGTGCA | -0.0635
CTTGAGCA | -0.192

Later entries:

Sequence | PBM E-score
TCACGTGA | 0.0123
GCGACTCA | 0.0102
GAAAATTA | 0.105
GGAACAAA | 0.263
CTAGGACC | -0.243
AGTAGAGA | -0.0288
CCCGACAA | 0.261
CTCGGTAC | -0.25
TACCGGAA | 0.0379
CCCGCGTA | 0.0466
ACAATGGG | 0.0335
GCGCTCAC | 0.146
AGTATAAA | 0.194
CGTCTGTA | -0.0917
ATGGGCAC | 0.127
AGGATGAA | -0.0613
GAGCGGGC | -0.182
AAAGCTCA | -0.0299
AGACAATC | 0.0613
AGTCCCGG | -0.212
CTTAACAA | 0.107
GAAACCCA | 0.158

Sequence | PBM E-score
ATCTGTTG | -0.0394
TGAGACCA | 0.00854
CACGTTAA | 0.0481
GCGCTATA | 0.076
AGCTGCGG | -0.0948
ACAGATCG | 0.0628
AAGCCTAG | -0.148
CTGCACGC | -0.185
AATCCGCG | -0.0302
ATGGCGCA | 0.183
CGATCGAA | 0.0388
ACTATTTA | 0.0789
AGCCGGGG | -0.154
CACATAGC | -0.0258
GAGTAGTA | 0.0848
CCAGTACC | -0.0384
CCTACCCG | -0.0674
AGCTATGC | -0.122
CAATGGCA | 0.165
CATCTGAC | -0.156
CTACTTAC | -0.125
AACTATCC | -0.134

Sequence | PBM E-score
AACAATTA | 0.193
GGTGGGAC | -0.202
GCCGAACC | -0.0531
AATTCTGT | -0.0464
ATTACACC | 0.0197
CTACGCAC | -0.027
CGTTACAC | -0.104
GCGTTTCA | -0.0291
ACTGAAAG | 0.0423
GGTGTCCA | 0.0507
CCAGCGTA | -0.0444
CCCTTGGA | 0.18
AGATGCAC | -0.0859
CAAAGTCA | 0.0623
CTTGCCGC | -0.182
CTATTCGA | -0.0445
GAAGCTTC | -0.12
GGTTAGCA | -0.0669
CCGAGGTA | 0.00195
GGCATCCA | -0.203
GAATTCAA | 0.192
AAAAATGC | 0.0436

Sequence | PBM E-score
GAACGGAC | -0.231
AAGCATTG | 0.00568
GTGGAGCA | -0.0996
AAGGGTAC | 0.165
AACAAGTG | -0.087
AGGAGATC | 0.0944
AGCCTTAA | 0.0283
AATCTTCA | 0.153
AGGAAGCC | -0.0629
CGACCCAC | -0.0231
CAGCACTA | 0.0125
GCTCCGAA | 0.107
AGTATTCC | 0.13
GTGTTTGA | 0.162
ACACTGAT | -0.00244
TGTCCACA | 0.0153
TATTTGCA | 0.172
GGAGCCGA | -0.113
CCCAGTTC | 0.124
AAGTATTG | -0.00193
GATCCAGC | -0.0881
AAAGAAAC | 0.0693
